Test system: HeLa cells
Experiment: In vitro cytotoxicity MTS assay with HeLa cells
Type: cell-based, human
Settings: HeLa cell line, 48 h incubation, mean ± SD (n = 3)
How it was run: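 HeLa cells were grown in EMEM with 10% FBS, nonessential amino acids and sodium pyruvate at 37 °C in 5% CO2. They were seeded at 40000 cells/well and left 24 h, then exposed 48 h to freshly prepared medium holding test compound over 0–100 or 0–1000 µM. MTS was added for 3 h and absorbance read at 490 nm. IC50 was obtained by curve fitting; runs were in triplicate.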

## N.N.[Cl][Pt][Cl] [cisplatin, cis-diamminedichloridoplatinum(II), reference compound]
  IC50: 15.5 ± 2.3 µM

From PMC10785272 (ACS Omega, 2023)
